Assay results from patent publication US20190270815A1.
Numbering of substitutions follows the chain as printed. Results are given in words; binding and its absence hold for the method and conditions named. A result given as binding can be weak or reduced; the word gives no strength.

B1: 1.139.15 hAb (antibody, V domains shown)
VH: QLQLQESGPGLVKPSETLSLTCTVSGGSISSTTYYWGWIRQPPGKGLEWIGSISYSGTTYYNPSLKSRVTIPVDTSKNQISLKLSSVTAADTSLYYCARHLGYNSNWYPFDYWGQGTLVTVSS
VL: QSALTQPPSVSGSPGQSVTISCTGTSSDVGSYNRVSWYQQPPGTAPEVIIYEVSNRPSGVPDRFSGSKSGNTASLTISGLQAEDEADYYCSSYTSSSTWVFGGGTKLTVL
B2: 1.7.3 hAb (antibody, V domains shown)
VH: QLQLQESGPGLVKPSETLTLTCTVSGDSISSTTYYWVWIRQPPGKGLEWIGSISYSGNTYYNPSLKSRVTISVDTSKNHFSLKLSSVAATDTALYYCARHLGYNGRYLPFDYWGQGTLVTVSS
VL: QSALTQPASVSGSPGQSITISCTGTSSDVGFYNYVSWYQQHPGKAPELMIYDVTNRPSGVSDRFSGSKSGNTASLTISGLQAEDEADYYCSSYTSISTWVFGGGTKLTVL
B3: 1.49.9 hAb (antibody, V domains shown)
VH: B2 VH with T19S, D27G, T32S, V37G, N58S, H79Q, A88T, A89D, T90A, L94V
VL: B2 VL with L48V, T54S
B4: 1.153.7 hAb (antibody, V domains shown)
VH: EVQLLESGGGLVQPGGSLRLSCAASGFTFSSHAMSWVRQAPGKGLEWVSTITGGGGSIYYADSVKGRFTISRDNSKNTLYLQMNSLRAEDTAVYYCAKNRAGEGYFDYWGQGTLVTVSS
VL: SYELTQPLSVSVALGQTARITCGGDNIGNKDVHWYQQKPGQAPVLVIYRDSNRPSGIPEGFSGSNSGNTATLTISRAQAGDEADYYCQVWDSIWVFGGGTKLTVL

molecular target: cynomolgus PD-1 (Sino Biological) (cynomolgus monkey); experiment: ELISA on plate-coated cynomolgus PD-1 (FIG. 6 legend)

Row | binding | Binder
1 | binds | B1
2 | binds | B2
3 | binds | B3
4 | binds | B4

molecular target: cynomolgus PD-1 (Sino Biological) (cynomolgus monkey); experiment: ELISA on plate-coated cynomolgus PD-1

Row | binding | Binder
5 | binds | B1
6 | binds | B2
7 | binds | B3
8 | binds | B4
